# Experimental data published in the supplement of paper PMC3334620.
# Whole data set: some 33,000 sequences, median “E-score (-0.5 to 0.5)” near -0.0014, cut for the highest 2% near 0.25. The list shows a part of the results.
# Molecular target: T1, Cad1 (UniProt P24813)
# T1 sequence: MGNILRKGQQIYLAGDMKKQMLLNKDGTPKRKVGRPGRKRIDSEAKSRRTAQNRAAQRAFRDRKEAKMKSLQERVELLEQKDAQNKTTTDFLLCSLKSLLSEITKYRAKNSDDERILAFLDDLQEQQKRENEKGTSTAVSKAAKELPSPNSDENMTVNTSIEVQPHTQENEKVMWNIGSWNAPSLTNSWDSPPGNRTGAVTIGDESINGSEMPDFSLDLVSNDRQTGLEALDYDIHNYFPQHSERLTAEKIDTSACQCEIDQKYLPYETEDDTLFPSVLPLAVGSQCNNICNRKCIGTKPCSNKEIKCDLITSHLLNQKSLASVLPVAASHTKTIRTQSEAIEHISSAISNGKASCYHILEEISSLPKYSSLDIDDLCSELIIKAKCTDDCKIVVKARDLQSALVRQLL
# Assay: PBM E-score (8-mer binding enrichment) (E-score (-0.5 to 0.5)); higher = stronger / more preferred TF binding
# Conditions: protein concentration: 100 nM; construct: GST-full length
# In short: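 Yeast transcription factors carrying a GST tag, as full-length proteins or DNA-binding domains, were produced by PURExpress in vitro transcription/translation. About 100-200 nM protein was applied to universal all-10-mer Agilent arrays, double-stranded by primer extension on fresh or once-stripped slides. Bound protein was detected with fluorescent anti-GST, and scans were normalised with masliner. The Universal PBM Analysis Suite gave each ungapped eight-base word, pooled with its reverse complement, an E-score, a modified Wilcoxon-Mann-Whitney statistic.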
row,Sequence,PBM E-score
1,GTCAACCA,-0.161
2,ATGACGAC,0.0161
3,ACCACGCG,0.0948
4,ATAGTGGG,-0.068
5,CGTGGCAG,0.0276
6,GTTAGGGA,0.0091
7,CGCGTGGA,-0.00085
8,GCCTAGGC,-0.0941
9,CCTGGCTC,-0.0638
10,ACGTCTAG,0.139
11,AGTGACCG,-0.0545
12,ACCGTGGA,-0.0656
13,CAGTAAGA,0.194
14,CCGACGAA,0.119
15,ACTCACGG,0.0453
16,AGTGGTGC,-0.0984
17,GCCTGACC,-0.0845
18,AGGTGAGC,-0.141
19,ACCCCCTG,-0.395
20,GACCATGC,-0.0791
21,GTAATGGA,0.196
22,CCGATACG,-0.177
23,ACTCCTGG,-0.167
24,CCGTCAGG,-0.117
25,AAGACTTC,-0.169

row,Sequence,PBM E-score
1,AGCCTGCC,-0.116
2,GGCGCCGA,0.0572
3,AACGAACA,0.269
4,GAGACCGA,-0.00291
5,CAACGTCA,0.035
6,TCCAAAAA,0.0686
7,CACGTTCG,-0.0797
8,CTAGGAGA,-0.23
9,AACCGCGT,0.122
10,GTACTTAA,-0.0799
11,CACAGGTC,-0.128
12,ATAGGCCG,-0.154
13,ATACAAAC,0.166
14,CACGTAGC,-0.271
15,CATGAACC,0.0271
16,CGTTGCCC,-0.106
17,GAATTGGA,0.0649
18,CCCCTAAG,-0.244
19,TGACTCCA,-0.349
20,TTAATAAA,0.389
21,AAGAGGTC,-0.138
22,GCCGTTAA,0.107
23,ACAGCCTA,0.0267
24,ATCAACTG,0.0477
25,CAGGAGAC,0.0859

row,Sequence,PBM E-score
1,GCATCCTA,-0.16
2,ACATAGCG,-0.017
3,CTTTGCAC,0.0899
4,ACCGCACG,0.0441
5,ACTCGCAC,0.0553
6,ATATAGTG,0.22
7,GAAGAGCC,-0.0377
8,AGTCCGTA,-0.016
9,CCCCTATC,-0.224
10,AGGTCATC,-0.0889
11,GCCCCAAC,0.117
12,CCCGTCGG,-0.117
13,CAATTGCG,0.0777
14,GTTCACTA,0.14
15,AATGTTCC,0.113
16,CTCGTTCA,0.0713
17,TCAAGTAA,0.0378
18,CTTAAATC,0.0641
19,GCGTTCAA,0.119
20,ATAAGCCG,0.109
21,ATTTGTGG,0.143
22,ACAATTAT,0.267
23,ACCAGACT,0.071
24,ACGAAGTG,-0.067
25,CCAGTTAC,-0.382

# Quoted at random: 3 entries already listed.
row,Sequence,PBM E-score
7,GAAGAGCC,-0.0377
25,AAGACTTC,-0.169
24,ATCAACTG,0.0477

# Some values from the entries so far.
# TCAAGTAA – PBM E-score: 0.0378
# CCCCTATC – PBM E-score: -0.224
# ATATAGTG – PBM E-score: 0.22

# More results:

row,Sequence,PBM E-score
1,ATCCCAGG,-0.156
2,CCTAAAAA,-0.0353
3,TGGCAAAA,0.148
4,CCGGGTCC,-0.17
5,TAATACAA,0.219
6,AATTTAGA,0.0808
7,GATTATTA,0.2
8,AAGATTAT,0.104
9,TCCCTTAA,-0.209
10,GTTGCAGA,-0.0187
11,TTCTACAA,-0.00494
12,AAATATGC,0.069
13,GAATGGAC,-0.0285
14,CCGTATTA,0.0842
15,TAGGTATA,0.119
16,GGTGGCTA,-0.00533
17,TCCGCCCA,-0.0481
18,AAATCCCA,-0.0234
19,CCAACCGC,-0.0303
20,AGTATCTA,0.0971
21,CCTTAGGC,-0.27
22,AGTGTGCG,-0.0172
23,ATTCGTCA,0.197
24,ACCCTGAC,-0.12
25,GGATCTGA,-0.0154

row,Sequence,PBM E-score
1,CAATGGGA,0.0702
2,ATGGTATC,0.165
3,GTTATTGA,0.159
4,ATGGTGTC,0.00316
5,ACGATTCC,0.0765
6,GGGAAGTA,0.0404
7,TCCCCGAA,-0.144
8,GGTCCTAA,-0.00787
9,CGCCTAGA,-0.217
10,CATAGGCA,-0.104
11,GTCACTTA,0.151
12,ATGGGCCG,-0.253
13,TTAATTAA,0.0562
14,GACGCATC,0.169
15,CCGCTGTA,0.0103
16,CGCCCACG,-0.15
17,ACGACTCA,-0.148
18,CAATCGCA,0.00664
19,GACCAGGC,-0.124
20,ACGCTTAT,-0.0377
21,GAGTCCTA,-0.12
22,ATAGGGTA,0.00484
23,GCAGAGCA,-0.241
24,AACTCCAC,0.0188
25,AAGGTCAA,-0.232

row,Sequence,PBM E-score
1,CTTGCGAC,-0.144
2,TAATTCCA,0.0167
3,ATTTGGAA,0.149
4,CTAGGATC,-0.0767
5,AGATTAGC,0.125
6,GTGCAGAA,0.0618
7,AGAGACAG,-0.11
8,TCGGTGCA,0.14
9,TAGTGGAA,-0.162
10,CTCACATA,-0.0775
11,TGAAGGCA,-0.0429
12,CATGCATA,0.156
13,GCTTAACA,0.073
14,CGGCCCCA,-0.307
15,ATCGAGCC,-0.0609
16,GCGCCGGA,-0.0244
17,CGGCGATC,0.103
18,CCGGCAGA,-0.0597
19,AGCTGTGA,0.106
20,CTTTAGTA,0.174
21,AGAATGAT,0.0516
22,AAATCCAG,0.105
23,GTTCGTAA,0.119
24,GTTGTCCA,0.083
25,AAGTACTC,0.0171

row,Sequence,PBM E-score
1,CAATAGTA,0.137
2,AAGGTGTA,-0.0945
3,CACTGCCA,0.133
4,GGGGGACC,-0.409
5,CGATCTAA,0.134
6,AACCCAGT,-0.114
7,AAAGCATT,0.117
8,CCATGCAA,0.119
9,GCGACTAC,0.0159
10,ACAACTCC,-0.00409
11,ACTGGCTG,-0.081
12,GTCGAAAA,0.149
13,ATAATGGC,0.162
14,AATGCTCC,-0.18
15,CAACCTAG,-0.0439
16,AGCCTGGG,-0.151
17,CAGTCCCA,-0.156
18,AGAAGTTC,-0.125
19,CTGCTTCC,-0.147
20,CTATACGC,-0.00393
21,TGGCGACA,-0.0568
22,AATTAACA,0.123
23,TAAAACTA,0.152
24,ATCCGGGG,-0.0124
25,AAAGGTTC,-0.175

row,Sequence,PBM E-score
1,TCAGTGCA,0.0799
2,GAACACAC,0.0786
3,CAGCAGGA,0.17
4,AACCGGGA,0.00913
5,AAGGGAAG,-0.0992
6,CTTGGTCC,-0.0573
7,CACAACAG,-0.247
8,AGAATACG,-0.0397
9,CAATGGTC,0.0909
10,CAAATCCG,0.0491
11,CAGTTAGA,-0.0457
12,CGTCACAA,0.0812
13,CGAGACCA,-0.0428
14,ATTCGTAA,0.26
15,GATACCGC,0.122
16,ATCATGTA,0.157
17,ATGTCATG,0.178
18,TATACACA,0.13
19,GCAAGCAC,-0.156
20,GCCTGAGA,-0.169
21,AAGAACTC,0.024
22,CATGGGCG,0.0134
23,CTAAGGTC,-0.0136
24,GGACGAGA,-0.112
25,ATACGCTG,0.156

# 6 consecutive entries already listed, for reference:
row,Sequence,PBM E-score
17,ATGTCATG,0.178
18,TATACACA,0.13
19,GCAAGCAC,-0.156
20,GCCTGAGA,-0.169
21,AAGAACTC,0.024
22,CATGGGCG,0.0134

# (next part)

row,Sequence,PBM E-score
1,ATTCTATA,0.0761
2,TCCTATCA,-0.0965
3,GGTAGCGA,-0.0509
4,CTCGTTCC,0.0398
5,ACAAAATG,0.216
6,CTACAAGC,0.00321
7,ACGATTAC,0.228
8,GATTAGGC,0.156
9,CATGGCCA,0.0186
10,CCAGAGCA,-0.00085
11,CCTTAACC,-0.244
12,CGGATACA,0.182
13,AATTGACG,-0.017
14,CCGCATCA,-0.00697
15,GTTACGCA,0.0739
16,CAGTGGAA,-0.0557
17,AGATCCTG,-0.0555
18,CAGTACCA,-0.0164
19,CTTCCTCA,-0.0682
